Assay results reported in ChEMBL document CHEMBL1143746, “Synthesis and biological evaluation of sulfonylhydrazone-substituted imidazo[1,2-a]pyridines as novel PI3 kinase p110alpha inhibitors” (Bioorg Med Chem, 2007).

How the values were obtained:
MCF7 [1] = experiment: Inhibition of serum-induced proliferation of human MCF7 cells; format: functional, cell-based
MCF7 [2] = experiment: Inhibition of serum-induced proliferation of human adriamycin-resistant MCF7 cells; format: functional, cell-based

IC50 (MCF7 [1]): 0.0071 µM
IC50 (MCF7 [2]): 17 µM
Structure (SMILES): COc1cccc2c1C(=O)c1c(O)c3c(c(O)c1C2=O)C[C@@](O)(C(=O)CO)C[C@@H]3O[C@H]1C[C@H](N)[C@H](O)[C@H](C)O1 [DOXORUBICIN]
